For assay [1], the target named is T1, full-length V5-tagged mouse Tyro3 (mouse) (UniProt P55144).
T1 sequence (chain, N-linked glycosylated forms (doublet of about 125-120 kDa)): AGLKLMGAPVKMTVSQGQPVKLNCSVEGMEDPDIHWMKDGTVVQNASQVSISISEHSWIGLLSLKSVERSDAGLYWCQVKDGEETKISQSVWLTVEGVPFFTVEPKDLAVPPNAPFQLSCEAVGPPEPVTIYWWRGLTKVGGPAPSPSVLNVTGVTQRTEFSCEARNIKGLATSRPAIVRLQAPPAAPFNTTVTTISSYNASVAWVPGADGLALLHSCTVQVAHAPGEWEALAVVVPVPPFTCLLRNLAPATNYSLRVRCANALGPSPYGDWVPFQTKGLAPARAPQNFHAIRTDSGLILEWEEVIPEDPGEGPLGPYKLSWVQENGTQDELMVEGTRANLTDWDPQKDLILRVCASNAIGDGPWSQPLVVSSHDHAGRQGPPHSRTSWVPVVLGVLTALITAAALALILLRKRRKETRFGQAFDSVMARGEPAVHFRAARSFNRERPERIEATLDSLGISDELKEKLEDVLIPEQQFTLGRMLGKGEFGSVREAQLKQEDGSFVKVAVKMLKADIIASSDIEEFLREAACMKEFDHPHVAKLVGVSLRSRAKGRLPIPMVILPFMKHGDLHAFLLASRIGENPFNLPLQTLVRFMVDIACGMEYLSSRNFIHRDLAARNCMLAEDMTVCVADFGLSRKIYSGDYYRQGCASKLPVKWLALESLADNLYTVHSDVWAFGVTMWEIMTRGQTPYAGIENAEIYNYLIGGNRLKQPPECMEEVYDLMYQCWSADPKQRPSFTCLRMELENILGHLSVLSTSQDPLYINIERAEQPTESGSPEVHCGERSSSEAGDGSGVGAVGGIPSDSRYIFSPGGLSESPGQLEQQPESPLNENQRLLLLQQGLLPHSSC
In words: co-IP; Rat2/T3V5 cells activated with 350 ng/ml Gas6 for 10 min; detergent extracts normalized and divided in two; IP of Tyro3 with anti-FN2 Tyro3 antibodies or of Axl with mouse monoclonal anti-Axl antibodies, overnight at 4°C; 6% SDS-PAGE; blotted with anti-Tyro3 serum 5424 or rabbit anti-Axl.

Assay [2] addresses Axl (endogenous in Rat2 cells) (rat (endogenous in Rat2)). The assay is described as above.

No constants are given. Whether binding was seen depends on the method and setting. Binding seen in cells or lysates may run through a third protein. A result given as binding can be weak or reduced; the word gives no strength. Where a sequence is shown, tags or fusion partners need not be part of it.

“Axl (endogenous in Rat2 cells) (receptor)”: the binding result in assay [1] is on record as “binds”.

B1: full-length V5-tagged mouse Tyro3 (receptor, UniProt P55144 31-880)
chain: T1 sequence (chain, N-linked glycosylated forms (doublet of about 125-120 kDa))
modifications: N-linked glycosylated forms (doublet of about 125-120 kDa)
In the case of B1, the binding entry in assay [2] is recorded as “binds”.

Source of the values: PMC3351477.
